Results as given in PubChem BioAssay AID602346 (Broad Institute, 2012).
Hit rate of the full screen: of about 340,000 compounds, about 1,200 (0.35%) were called active. The inconclusive results got no clear call from the source; some entries with a clear call stand among them for comparison. No stated cut-off is given here; in the data, active means inhibition above about 50% (passing the limit was not always enough); inconclusive means no clear call, values can overlap the other calls; inactive means below about 31%.

experiment: blockers of Vif multimerization in cells – imaging, HEK293T, single point, primary screen (AID 602346); conditions: Vif self-association by quenched fluorescence, 24 h, at 7.49 µM, stronger effect = higher value

Row | SMILES | inhibition
1 | COc1ccc(C2N=C(N)N=C(N)N2c2ccccc2)cc1OC (stereo unspecified) | inconclusive: 43.4%
2 | O=C(CN1C(=O)c2ccccc2C1=O)C(O)CN1C(=O)c2ccccc2C1=O (stereo unspecified) | inconclusive: 39.8%
3 | O=C(COc1cccc(Cl)c1)Nc1ccc2c(c1)CCC2 | active: 105%
4 | CC(=O)Nc1ccc(CN(C)c2c(C)nc3ccc(C(=O)NCCc4ccccn4)cn23)cc1 | inconclusive: 20.5%
5 | CCOc1ccc(NC(=O)CCS(=O)(=O)c2ccc3c(c2)CCCN3C(C)=O)cc1 | inconclusive: 42.1%
6 | CCOC(=O)C1=C[C@@H](C(C)(C)C)N(S(=O)(=O)c2ccc(C)cc2)[C@H]1c1ccc(F)cc1 | inconclusive: 38.4%
7 | CCOc1ccc2c(c1)S/C(=C\c1cccs1)C(=O)N2 | inconclusive: 48.5%
8 | C=CCNC(=O)NC(=O)COC(=O)COc1ccc(Br)cc1F | inconclusive: 21.9%
9 | O=C(Nc1c(Cl)ccc2nsnc12)c1ccc([N+](=O)[O-])o1 | inactive: 18.4%
10 | Cc1cccc(C)c1NC(=S)N1CCC(c2ccccc2)C1 (stereo unspecified) | inconclusive: 34.5%
11 | O=C1OC(CCl)CN1Cc1c(Cl)cccc1Cl (stereo unspecified) | inconclusive: 26.6%
12 | Cc1ccc(/C=N/NC(=S)N2CCOCC2)cc1 | inactive: -4.31%
13 | COc1ccc(-n2c(=O)c3c4c(sc3n(CC(N)=O)c2=O)CCCCC4)cc1 | inconclusive: 39.2%
14 | FC(F)(F)c1cc(-c2ccco2)nc(NCc2ccco2)n1 | inconclusive: 30.3%
15 | CCN(CC)CCNC(=O)CCn1c(=S)[nH]c2cc3c(cc2c1=O)OCO3 | inconclusive: 27.7%
16 | O=C(C1=C(O)C(=O)N(CC2CCCO2)C1c1ccc(Cl)cc1Cl)c1ccco1 (stereo unspecified) | inconclusive: 39.7%
17 | O=C1NC(Cc2ccc(O)cc2)c2nc3ccc(Br)cc3c(=O)n2-c2ncccc21 (stereo unspecified) | inconclusive: 36.8%
18 | Cc1oc(-c2cccc(Cl)c2)nc1CN(C)C1CCOC1 (stereo unspecified) | inactive: 14.6%
19 | CC(C)(C)NS(=O)(=O)c1ccc(NC(=O)C(Sc2ccccc2)c2ccccc2)cc1 (stereo unspecified) | inconclusive: 44.6%
20 | CCN(C(=O)CN1C(=S)NC(C)(C)CC1C)c1ccc(C)c(C)c1 (stereo unspecified) | inconclusive: 26.1%
21 | CCCC(C(=O)NC(C)(C)C)N(C(=O)c1snc(C(N)=O)c1N)c1ccc2c(c1)OCCO2 (stereo unspecified) | inactive: -10.2%
22 | CC(C)C(NC(=O)c1c(F)cccc1F)C(=O)NCC(c1ccccc1)N(C)C (stereo unspecified) | inconclusive: 37%
23 | COc1ccccc1Nc1nnc(C)c(=O)[nH]1 | active: 73%

Row | SMILES | inhibition
24 | CCCS(=O)(=O)c1cnc(C2COc3ccccc3O2)nc1N (stereo unspecified) | active: 79.9%
25 | O=C(COc1ccc2ccc(=O)oc2c1)N1CCN(C(=O)C2COc3ccccc3O2)CC1 (stereo unspecified) | inactive: -0.812%
26 | CCCCNc1c(-c2ccc(OC)c(Sc3ccc(OC)cc3)c2)nc2cnccn12 | active: 60.7%
27 | CCc1ccc(OCC(=O)NC2CCCCC2)c(Br)c1 | inactive: -21.6%
28 | CCC(=O)Nc1ccc(-c2ccc(N3CCC(C)CC3)nn2)cc1 | inconclusive: 27.1%
29 | CCOC(=O)N1CCN(C(=O)COC(=O)CSc2cc(C)c(Br)cc2C)CC1 | inconclusive: 34.7%
30 | Cc1[nH]nc(C(F)(F)F)c1CCC(=O)NC1CCCCCC1 | active: 58.5%
31 | O=C(CN(C(=O)CCC(=O)Nc1nccs1)c1cccc(F)c1)NCCc1ccccc1 | inconclusive: 30.2%
32 | COc1cnc(SCc2c(Cl)cccc2Cl)nc1Cl | inactive: -2.39%
33 | Cc1cc(C)cc(N2Cc3ccccc3C2)c1 | inactive: 1.11%
34 | O=S(=O)(Nc1ccc2c3c(cccc13)CC2)c1ccccc1 | inactive: -12.3%
35 | COc1ccccc1NC(=O)c1oc2ccccc2c1NC(=O)c1ccco1 | inconclusive: 35.6%
36 | O=C(/C=C\c1cn(-c2ccccc2)nc1-c1cccs1)N1CCOCC1 | active: 87.7%
37 | Cc1cc(/C=C2\SC(=S)N(Cc3ccco3)C2=O)c(C)n1-c1cccnc1 | active: 187%
38 | CCN(C(=O)COC(=O)/C(C#N)=C/c1ccc(N(C)C)cc1)C1CCS(=O)(=O)C1 (stereo unspecified) | inconclusive: 40.8%
39 | Cc1cnc(NC(=O)COc2ccc3c(c2)CCC3)s1 | inconclusive: 42.4%
40 | CCOCCCn1cnc2c(c1=O)c1nc3ccccc3nc1n2-c1ccc(C)cc1 | inconclusive: 30.6%
41 | CCn1cc([N+](=O)[O-])c(C(=O)Nc2cc(C)on2)n1 | inconclusive: 47.1%
42 | COc1cc(C(=O)Nc2ccc(NC(C)=O)cc2)ccc1OCc1ccccc1 | inactive: -11.4%
43 | CN1CCN(c2nc(-c3ccccn3)nc3ccccc23)CC1 | inconclusive: 30.7%
44 | Oc1ccc(-c2nc(-c3ccc(F)cc3)c(-c3ccncc3)[nH]2)cc1 | inconclusive: 33.5%
45 | Cc1cc(C(=O)N2CCN(c3ccc([N+](=O)[O-])cc3)CC2)co1 | active: 86.2%
46 | Cc1ccc(C)c(CSc2nnc(-c3ccccn3)n2N)c1 | inactive: 1.61%

Row | SMILES | inhibition
47 | O=C(CN1C(=O)C2CC=CCC2C1=O)OCC(=O)c1ccc(Cl)c([N+](=O)[O-])c1 (stereo unspecified) | inactive: 5.63%
48 | COc1ccc([C@H]2CC(=O)C=C(c3cc4ccccc4s3)C2)cc1 | active: 50.6%
49 | O=C(NCc1ccc(Cl)cc1)N1CCOCC1 | active: 50.4%
50 | CC1CC(=O)NN=C1c1ccc(N(C)C)c([N+](=O)[O-])c1 (stereo unspecified) | inactive: -3.48%
51 | COc1cc(CCCN2C(=O)C(=O)NC[C@@H]2C(C)O)cc(OC)c1OC (stereo partly specified) | inconclusive: 31.5%
52 | Cc1noc(C)c1S(=O)(=O)Nc1ccc(C(=O)Nc2ccc(OC(F)(F)F)cc2)cc1 | inactive: -9.47%
53 | CCCCCCNCc1cccc(Br)c1 | inconclusive: 45.3%
54 | O=c1[nH]nc(-c2ccc(NCCO)c([N+](=O)[O-])c2)c2ccccc12 | active: 55.7%
55 | COc1ccc(-c2cc(C(F)(F)F)nc(SCC(=O)NCCN3CCOCC3)n2)cc1OC | inconclusive: 21.7%
56 | CN(C)CCNC(=S)Nc1ccccc1Cl | active: 64.9%
57 | N=c1nc(-c2ccccc2)ccn1O | inconclusive: 45.7%
58 | CSc1ccccc1OCc1cc(C(=O)N(C)Cc2nonc2C)no1 | inconclusive: 45.3%
59 | O=C(COC(=O)c1ccc(O)cc1)Nc1ccc2c(c1)OCO2 | inconclusive: 34.8%
60 | NC(=O)C1Cc2ccccc2CN1S(=O)(=O)c1ccc(Cl)s1 (stereo unspecified) | inconclusive: 26.1%
61 | Cc1ccc(O)c(N=Cc2sc3ccccc3c2Cl)c1 | inactive: -15.4%
62 | Cc1cccc(C(=O)N=c2sccn2C)c1[N+](=O)[O-] | inactive: -3.38%
63 | S=C(NCc1ccccc1)NC1CCCCC1 | inactive: -2.05%
64 | Cc1ccc(S(=O)(=O)N2CCN(CC(=O)Nc3ccnn3C3CCCC3)CC2)cc1 | inconclusive: 33.2%
65 | Cc1ccc(S(=O)(=O)NN=CC2(c3ccccc3)CC2)cc1 | inconclusive: 31.3%
66 | COC(=O)C1=CN(Cc2ccccc2)C=C(C(=O)OC)C1c1ccc(OC)c(OC)c1 | inactive: 11.3%
67 | CC1CC(C)(C)CC2(C1)NC(=O)N(CC(=O)N1CCN(S(=O)(=O)c3cccs3)CC1)C2=O (stereo unspecified) | inconclusive: 37.2%
68 | CCNc1nc(SC)nc(N(C#N)CC(=O)OC)n1 | inconclusive: 22.7%
69 | O=C(O)c1ccc(S(=O)(=O)c2ccc3c(c2)C(=O)N(c2ccc(Br)cc2)C3=O)cc1 | active: 66.3%

3 entries from above, sorted by length of the SMILES, ascending:
Row | SMILES | inhibition
8 | C=CCNC(=O)NC(=O)COC(=O)COc1ccc(Br)cc1F | inconclusive: 21.9%
19 | CC(C)(C)NS(=O)(=O)c1ccc(NC(=O)C(Sc2ccccc2)c2ccccc2)cc1 (stereo unspecified) | inconclusive: 44.6%
47 | O=C(CN1C(=O)C2CC=CCC2C1=O)OCC(=O)c1ccc(Cl)c([N+](=O)[O-])c1 (stereo unspecified) | inactive: 5.63%

Further structures follow:

Row | SMILES | inhibition
70 | CCOc1ccc(NC(=O)/C(C#N)=C\c2ccc(N3CCCC3)c(C)c2)cc1 | active: 53.6%
71 | COc1cc2ccccc2cc1C(=O)N1CC(C)CC(C)C1 (stereo unspecified) | inconclusive: 27.1%
72 | Cc1ccc2c(c1)N(CC(=O)N1CCCCCC1)C(=O)C(C)O2 (stereo unspecified) | active: 69%
73 | O=[N+]([O-])c1ccc(Sc2cccc[n+]2[O-])c2nonc12 | active: 76.9%
74 | O=C(O)c1ccc(-n2nnnc2Oc2ccccc2C(=O)N2CCOCC2)cc1 | inconclusive: 36%
75 | C[C@@H]1CN([C@H](C)CO)C(=O)CCCn2nncc2CO[C@H]1CN(C)CC1CC1 | inconclusive: 39.2%
76 | O=C(Nc1cc(S(=O)(=O)Nc2ccc(Cl)cc2)ccc1N1CCCCC1)c1ccc(F)cc1 | inconclusive: 25.5%
77 | COc1ccc(C2CC(c3ccncc3)=NN2c2ccc(S(N)(=O)=O)cc2)cc1 (stereo unspecified) | active: 93%
78 | O=C(Nc1ccsc1C(=O)O)c1cccc(Oc2ccccc2)c1 | inconclusive: 34.5%
79 | CC1CCN(c2oc(-c3ccccc3Cl)nc2C#N)CC1 | inconclusive: 36.2%
80 | O=C(NCc1ccccn1)C1CCN(S(=O)(=O)N2CCCCC2)CC1 | inconclusive: 40.6%
81 | COc1ccc(/C=C(\NC(=O)c2ccc(C)cc2)C(=O)NCCN2CCOCC2)cc1 | inconclusive: 28.2%
82 | Cc1cc(NS(=O)(=O)c2ccc(NC(=O)C(C)Oc3ccc(C(C)C)cc3)cc2)no1 (stereo unspecified) | inconclusive: 33.1%
83 | CCOCC(=O)NC1CCc2cc(OC(=O)COCC)c(OC)c(OC)c2-c2ccc(SC)c(=O)cc21 (stereo unspecified) | active: 95.3%
84 | CCn1c(SCc2nc3ccccc3c(=O)[nH]2)nc2ccccc2c1=O | inconclusive: 39.9%
85 | COc1cc(/C=N/N(c2ccccc2)c2ccccc2)ccc1O | inactive: 3.74%
86 | COc1ccc2[nH]cc(CCNC(=O)Nc3ccccc3)c2c1 | inactive: -11%
87 | CCC(C)NC(=O)c1ccccc1-c1nc2ccccc2[nH]1 (stereo unspecified) | inconclusive: 40.6%
88 | COC(=O)c1sccc1NC(=O)/C=C/C(=O)O | inconclusive: 15%
89 | Cc1ccc(-n2nc3c(N4CCC(C(=O)NCCc5cccs5)CC4)nnc(C)c3c2C)cc1 | active: 51.1%
90 | CCc1cc2c(=O)c(-c3cnn(-c4ccccc4)c3)c(C)oc2c(CN2CCCCC2)c1O | inactive: -8.8%
91 | COc1ccccc1C(NC(=O)C1CCN(CCOc2ccc(Cl)cc2Cl)CC1)c1ccccn1 (stereo unspecified) | inconclusive: 37.4%
